Measured values as given in ChEMBL document CHEMBL1155538 (Bioorg Med Chem Lett, 2010).
This is a selection: effects in other tests are not listed, and their absence says nothing. The source holds more than one record for some entries. Only these are listed. The source may hold further records. The values listed for one entry do not match, cause unknown; they may come from other doses, times, organisms or constructs than stated.

Test system: Liver microsomes
Assay: Half life in human liver microsomes
Type: ADME, Microsome

For `FC(F)Oc1ccccc1CC(c1ccccc1)N1CCNCC1` (stereo unspecified), the t1/2 was > 120 min, 72 min, 44 min.
